No constants are given. Whether binding was seen depends on the method and setting. Binding seen in cells or lysates may run through a third protein. Some binding calls cover weakened binding; strength is not graded here.
Biological target: PCAF (human (endogenous in HCT116)) (UniProt Q92831)
Experiment: co-IP; HCT116 cell lysates (cells with or without genipin) immunoprecipitated with anti-PCAF, anti-β-TrCP or anti-ITCH antibodies overnight at 4°C, protein G agarose beads, immunoblotted with an anti-GLI1 antibody

Amino acid sequences for entries named in this document (tags omitted).
UniProt Q92831: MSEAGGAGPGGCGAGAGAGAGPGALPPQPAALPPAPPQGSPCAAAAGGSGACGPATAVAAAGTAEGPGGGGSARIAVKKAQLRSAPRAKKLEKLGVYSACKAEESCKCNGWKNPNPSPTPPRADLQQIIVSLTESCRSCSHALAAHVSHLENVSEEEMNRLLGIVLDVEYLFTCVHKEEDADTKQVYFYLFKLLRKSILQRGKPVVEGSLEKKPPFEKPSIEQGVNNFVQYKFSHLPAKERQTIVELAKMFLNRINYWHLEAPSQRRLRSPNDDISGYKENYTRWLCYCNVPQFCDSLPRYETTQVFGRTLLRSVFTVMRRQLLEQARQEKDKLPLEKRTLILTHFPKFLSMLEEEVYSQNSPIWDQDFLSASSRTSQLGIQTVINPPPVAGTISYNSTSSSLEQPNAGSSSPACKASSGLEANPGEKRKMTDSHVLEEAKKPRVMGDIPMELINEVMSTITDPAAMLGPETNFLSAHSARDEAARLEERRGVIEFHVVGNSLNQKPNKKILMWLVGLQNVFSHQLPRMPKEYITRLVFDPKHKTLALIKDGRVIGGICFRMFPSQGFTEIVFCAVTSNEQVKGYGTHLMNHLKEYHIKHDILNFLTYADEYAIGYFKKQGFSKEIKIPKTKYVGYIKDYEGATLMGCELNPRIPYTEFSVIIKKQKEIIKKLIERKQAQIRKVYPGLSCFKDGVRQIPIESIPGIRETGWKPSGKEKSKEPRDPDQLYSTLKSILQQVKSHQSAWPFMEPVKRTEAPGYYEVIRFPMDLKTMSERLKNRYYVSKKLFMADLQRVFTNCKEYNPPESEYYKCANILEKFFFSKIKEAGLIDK
UniProt P08151: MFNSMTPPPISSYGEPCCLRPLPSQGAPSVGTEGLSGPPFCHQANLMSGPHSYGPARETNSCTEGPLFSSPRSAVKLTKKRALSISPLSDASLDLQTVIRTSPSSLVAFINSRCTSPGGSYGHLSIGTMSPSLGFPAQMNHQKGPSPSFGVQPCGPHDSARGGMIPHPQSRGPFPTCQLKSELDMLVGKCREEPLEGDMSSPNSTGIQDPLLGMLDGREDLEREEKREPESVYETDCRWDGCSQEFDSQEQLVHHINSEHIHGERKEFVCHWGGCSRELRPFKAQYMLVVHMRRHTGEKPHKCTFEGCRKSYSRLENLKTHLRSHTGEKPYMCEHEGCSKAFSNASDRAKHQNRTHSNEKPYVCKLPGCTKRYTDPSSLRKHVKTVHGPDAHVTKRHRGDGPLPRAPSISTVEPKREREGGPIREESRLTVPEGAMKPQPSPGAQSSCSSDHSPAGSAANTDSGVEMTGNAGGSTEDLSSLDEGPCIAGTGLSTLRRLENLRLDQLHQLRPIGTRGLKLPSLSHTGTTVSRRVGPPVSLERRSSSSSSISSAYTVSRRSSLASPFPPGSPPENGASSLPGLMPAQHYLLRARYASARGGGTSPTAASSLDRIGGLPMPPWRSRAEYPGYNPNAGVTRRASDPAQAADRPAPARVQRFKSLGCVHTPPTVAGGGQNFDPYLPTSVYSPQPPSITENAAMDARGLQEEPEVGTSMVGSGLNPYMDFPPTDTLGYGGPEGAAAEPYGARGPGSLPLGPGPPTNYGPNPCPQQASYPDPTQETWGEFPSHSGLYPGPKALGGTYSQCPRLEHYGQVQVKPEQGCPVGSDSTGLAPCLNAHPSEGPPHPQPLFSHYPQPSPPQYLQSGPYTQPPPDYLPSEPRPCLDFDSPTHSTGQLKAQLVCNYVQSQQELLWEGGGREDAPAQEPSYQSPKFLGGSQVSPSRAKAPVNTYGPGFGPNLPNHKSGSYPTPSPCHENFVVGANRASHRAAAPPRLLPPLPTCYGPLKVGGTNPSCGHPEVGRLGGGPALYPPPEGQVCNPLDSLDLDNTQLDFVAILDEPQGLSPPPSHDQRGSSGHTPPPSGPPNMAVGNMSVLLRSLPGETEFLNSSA

- binding: binds
Substance: GLI1 (from UniProt P08151 1-1106)

From publication PMC5731927
